Measured values published in publication PMC9321973.
Results are given in words; binding and its absence hold for the method and conditions named. In cells and extracts the contact can be indirect. These calls come from enrichment with a bait or labelling near it, and not all partners need be listed. Where a sequence is shown, tags or fusion partners need not be part of it.

By UniProt entry, the sequences of proteins in these tests, tags left out.
UniProt P31947: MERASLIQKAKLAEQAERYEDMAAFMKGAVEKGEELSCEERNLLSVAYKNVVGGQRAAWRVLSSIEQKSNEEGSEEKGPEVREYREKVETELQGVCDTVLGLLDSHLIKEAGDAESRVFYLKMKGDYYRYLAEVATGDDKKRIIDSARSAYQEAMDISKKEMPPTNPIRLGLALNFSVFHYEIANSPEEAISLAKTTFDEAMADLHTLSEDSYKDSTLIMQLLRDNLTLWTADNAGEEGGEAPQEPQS
UniProt Q9NZT1: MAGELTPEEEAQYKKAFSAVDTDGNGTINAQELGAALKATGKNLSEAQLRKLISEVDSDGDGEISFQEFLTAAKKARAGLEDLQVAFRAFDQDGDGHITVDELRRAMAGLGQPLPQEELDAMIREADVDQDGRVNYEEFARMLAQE
UniProt P04792: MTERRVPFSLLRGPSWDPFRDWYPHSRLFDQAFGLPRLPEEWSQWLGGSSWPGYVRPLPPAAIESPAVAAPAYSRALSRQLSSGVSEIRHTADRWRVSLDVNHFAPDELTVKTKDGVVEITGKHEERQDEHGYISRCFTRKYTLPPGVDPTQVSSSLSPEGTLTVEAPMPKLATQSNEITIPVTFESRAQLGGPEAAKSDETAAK
UniProt O60437: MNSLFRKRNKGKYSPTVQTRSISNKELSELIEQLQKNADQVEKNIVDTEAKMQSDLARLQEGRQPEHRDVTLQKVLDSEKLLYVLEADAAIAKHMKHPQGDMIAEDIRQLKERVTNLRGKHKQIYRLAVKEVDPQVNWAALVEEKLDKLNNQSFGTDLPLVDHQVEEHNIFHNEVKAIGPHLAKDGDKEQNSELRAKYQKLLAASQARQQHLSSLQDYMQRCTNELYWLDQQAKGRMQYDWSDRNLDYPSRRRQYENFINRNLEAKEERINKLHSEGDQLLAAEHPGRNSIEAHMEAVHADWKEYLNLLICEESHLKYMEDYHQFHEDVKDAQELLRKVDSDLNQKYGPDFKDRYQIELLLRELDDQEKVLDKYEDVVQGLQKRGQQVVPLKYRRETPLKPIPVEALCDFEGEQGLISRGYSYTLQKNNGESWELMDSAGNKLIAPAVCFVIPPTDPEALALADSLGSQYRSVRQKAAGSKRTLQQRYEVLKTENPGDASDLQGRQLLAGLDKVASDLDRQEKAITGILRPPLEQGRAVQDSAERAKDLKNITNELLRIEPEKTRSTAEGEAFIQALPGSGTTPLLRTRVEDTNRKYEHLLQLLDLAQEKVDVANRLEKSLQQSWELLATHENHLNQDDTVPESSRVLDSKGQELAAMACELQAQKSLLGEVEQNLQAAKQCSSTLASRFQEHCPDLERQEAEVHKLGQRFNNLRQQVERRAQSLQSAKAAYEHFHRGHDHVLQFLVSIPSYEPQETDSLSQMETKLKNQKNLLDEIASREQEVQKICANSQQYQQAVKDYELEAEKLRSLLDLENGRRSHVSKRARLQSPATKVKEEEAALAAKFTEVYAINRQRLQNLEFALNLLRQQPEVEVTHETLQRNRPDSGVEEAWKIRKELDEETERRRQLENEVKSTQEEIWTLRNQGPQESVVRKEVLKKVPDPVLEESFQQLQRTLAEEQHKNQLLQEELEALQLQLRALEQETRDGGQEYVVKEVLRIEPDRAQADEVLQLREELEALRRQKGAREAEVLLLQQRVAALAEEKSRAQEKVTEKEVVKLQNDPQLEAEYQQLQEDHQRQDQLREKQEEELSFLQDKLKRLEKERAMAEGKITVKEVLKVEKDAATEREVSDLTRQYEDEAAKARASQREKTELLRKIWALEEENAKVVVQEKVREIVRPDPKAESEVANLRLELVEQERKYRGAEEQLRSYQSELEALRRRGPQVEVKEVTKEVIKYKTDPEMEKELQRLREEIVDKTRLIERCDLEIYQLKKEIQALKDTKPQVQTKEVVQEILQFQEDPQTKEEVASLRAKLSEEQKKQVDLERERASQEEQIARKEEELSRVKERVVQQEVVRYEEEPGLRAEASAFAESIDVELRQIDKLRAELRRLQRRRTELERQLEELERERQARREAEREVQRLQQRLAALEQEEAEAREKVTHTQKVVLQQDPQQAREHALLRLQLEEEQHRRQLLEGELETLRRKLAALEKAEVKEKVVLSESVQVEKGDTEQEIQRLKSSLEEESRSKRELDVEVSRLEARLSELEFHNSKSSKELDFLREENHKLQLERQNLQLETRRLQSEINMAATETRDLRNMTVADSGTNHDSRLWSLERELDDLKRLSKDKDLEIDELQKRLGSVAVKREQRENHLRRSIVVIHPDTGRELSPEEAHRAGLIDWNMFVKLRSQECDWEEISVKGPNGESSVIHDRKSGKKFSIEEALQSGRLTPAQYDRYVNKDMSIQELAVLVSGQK
UniProt Q8WVV4: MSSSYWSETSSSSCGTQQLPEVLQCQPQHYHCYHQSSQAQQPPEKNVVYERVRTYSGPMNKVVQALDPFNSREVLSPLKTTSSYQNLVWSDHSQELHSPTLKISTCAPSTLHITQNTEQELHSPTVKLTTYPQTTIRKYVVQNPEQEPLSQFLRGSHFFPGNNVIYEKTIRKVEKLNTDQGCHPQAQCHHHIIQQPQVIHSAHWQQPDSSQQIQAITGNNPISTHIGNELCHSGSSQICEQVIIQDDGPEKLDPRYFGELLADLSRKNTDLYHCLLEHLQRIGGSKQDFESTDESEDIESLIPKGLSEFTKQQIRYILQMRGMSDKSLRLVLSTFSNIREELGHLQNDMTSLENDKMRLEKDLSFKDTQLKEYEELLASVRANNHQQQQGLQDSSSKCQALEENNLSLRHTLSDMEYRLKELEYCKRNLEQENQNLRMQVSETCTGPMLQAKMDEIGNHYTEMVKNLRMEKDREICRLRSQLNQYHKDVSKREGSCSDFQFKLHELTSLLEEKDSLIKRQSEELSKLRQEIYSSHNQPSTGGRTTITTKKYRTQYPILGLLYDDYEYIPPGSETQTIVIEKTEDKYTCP
UniProt Q9NRX1: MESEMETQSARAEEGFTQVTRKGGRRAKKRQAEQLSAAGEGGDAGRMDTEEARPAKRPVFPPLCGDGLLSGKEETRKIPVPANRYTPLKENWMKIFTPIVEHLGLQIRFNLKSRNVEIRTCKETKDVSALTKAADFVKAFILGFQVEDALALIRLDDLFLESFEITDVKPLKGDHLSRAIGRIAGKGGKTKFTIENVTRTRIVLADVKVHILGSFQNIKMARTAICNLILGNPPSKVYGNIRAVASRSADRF
UniProt Q15208: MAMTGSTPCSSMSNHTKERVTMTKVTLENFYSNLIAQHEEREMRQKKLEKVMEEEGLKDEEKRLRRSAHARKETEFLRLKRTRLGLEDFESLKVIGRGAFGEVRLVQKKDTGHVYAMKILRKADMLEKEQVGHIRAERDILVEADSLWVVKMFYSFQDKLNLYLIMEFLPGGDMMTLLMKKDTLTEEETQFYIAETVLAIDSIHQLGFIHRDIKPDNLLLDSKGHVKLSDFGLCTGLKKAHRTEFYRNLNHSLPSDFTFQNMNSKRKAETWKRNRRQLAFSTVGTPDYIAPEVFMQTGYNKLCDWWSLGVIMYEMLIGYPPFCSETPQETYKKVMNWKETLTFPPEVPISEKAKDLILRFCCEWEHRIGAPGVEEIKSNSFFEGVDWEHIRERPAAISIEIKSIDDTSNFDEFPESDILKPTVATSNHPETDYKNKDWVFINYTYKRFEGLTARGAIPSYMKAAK
UniProt Q13838: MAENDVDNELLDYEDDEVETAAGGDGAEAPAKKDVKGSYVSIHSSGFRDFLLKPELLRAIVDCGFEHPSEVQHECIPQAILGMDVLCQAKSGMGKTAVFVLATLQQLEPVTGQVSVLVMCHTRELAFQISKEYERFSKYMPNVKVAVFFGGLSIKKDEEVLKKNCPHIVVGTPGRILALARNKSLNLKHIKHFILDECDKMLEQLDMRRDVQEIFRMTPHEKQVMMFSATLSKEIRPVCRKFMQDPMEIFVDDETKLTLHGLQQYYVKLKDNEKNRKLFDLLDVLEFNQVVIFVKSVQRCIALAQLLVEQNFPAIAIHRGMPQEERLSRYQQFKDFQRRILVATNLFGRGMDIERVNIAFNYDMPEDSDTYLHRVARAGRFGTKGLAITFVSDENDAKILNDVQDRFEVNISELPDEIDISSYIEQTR
UniProt Q9BQE3: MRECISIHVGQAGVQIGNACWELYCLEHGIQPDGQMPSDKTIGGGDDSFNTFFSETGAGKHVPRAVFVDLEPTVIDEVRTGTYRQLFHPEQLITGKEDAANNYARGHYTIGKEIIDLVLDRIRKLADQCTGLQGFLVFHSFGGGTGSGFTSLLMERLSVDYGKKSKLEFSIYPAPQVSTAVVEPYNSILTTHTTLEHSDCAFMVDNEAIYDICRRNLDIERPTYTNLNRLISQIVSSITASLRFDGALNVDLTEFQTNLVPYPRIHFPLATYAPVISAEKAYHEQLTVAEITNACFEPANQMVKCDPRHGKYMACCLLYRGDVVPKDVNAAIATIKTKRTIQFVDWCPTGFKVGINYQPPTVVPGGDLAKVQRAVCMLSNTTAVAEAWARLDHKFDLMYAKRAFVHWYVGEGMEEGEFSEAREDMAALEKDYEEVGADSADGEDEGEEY
UniProt O43795: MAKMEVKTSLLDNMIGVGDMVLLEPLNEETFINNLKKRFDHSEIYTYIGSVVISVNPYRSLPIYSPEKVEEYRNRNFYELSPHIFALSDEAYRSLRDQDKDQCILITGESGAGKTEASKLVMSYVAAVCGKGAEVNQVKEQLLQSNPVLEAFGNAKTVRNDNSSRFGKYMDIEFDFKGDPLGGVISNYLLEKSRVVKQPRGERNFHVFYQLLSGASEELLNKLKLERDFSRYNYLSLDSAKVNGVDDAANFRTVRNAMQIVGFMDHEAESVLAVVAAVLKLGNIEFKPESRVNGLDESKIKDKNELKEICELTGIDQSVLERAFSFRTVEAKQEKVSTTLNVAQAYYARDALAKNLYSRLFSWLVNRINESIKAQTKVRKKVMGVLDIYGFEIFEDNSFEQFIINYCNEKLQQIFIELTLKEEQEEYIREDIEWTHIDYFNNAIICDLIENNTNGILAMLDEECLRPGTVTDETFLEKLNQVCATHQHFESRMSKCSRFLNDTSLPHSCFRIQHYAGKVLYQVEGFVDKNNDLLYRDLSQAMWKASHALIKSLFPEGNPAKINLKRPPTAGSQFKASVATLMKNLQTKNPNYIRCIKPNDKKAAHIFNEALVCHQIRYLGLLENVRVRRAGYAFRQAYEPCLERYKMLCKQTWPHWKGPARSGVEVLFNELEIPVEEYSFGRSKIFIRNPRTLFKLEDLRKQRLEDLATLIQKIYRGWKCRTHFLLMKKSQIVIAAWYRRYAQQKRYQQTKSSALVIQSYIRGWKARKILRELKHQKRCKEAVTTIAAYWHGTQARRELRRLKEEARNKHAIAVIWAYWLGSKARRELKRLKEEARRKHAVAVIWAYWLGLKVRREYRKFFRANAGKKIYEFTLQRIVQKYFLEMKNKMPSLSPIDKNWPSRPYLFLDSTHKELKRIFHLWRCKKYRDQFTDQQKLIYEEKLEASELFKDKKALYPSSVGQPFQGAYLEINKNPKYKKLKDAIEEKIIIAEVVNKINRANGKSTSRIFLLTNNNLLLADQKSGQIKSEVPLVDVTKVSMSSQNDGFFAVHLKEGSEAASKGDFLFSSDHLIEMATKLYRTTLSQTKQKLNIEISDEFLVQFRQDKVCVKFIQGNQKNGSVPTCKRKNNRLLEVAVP
UniProt Q9NX07: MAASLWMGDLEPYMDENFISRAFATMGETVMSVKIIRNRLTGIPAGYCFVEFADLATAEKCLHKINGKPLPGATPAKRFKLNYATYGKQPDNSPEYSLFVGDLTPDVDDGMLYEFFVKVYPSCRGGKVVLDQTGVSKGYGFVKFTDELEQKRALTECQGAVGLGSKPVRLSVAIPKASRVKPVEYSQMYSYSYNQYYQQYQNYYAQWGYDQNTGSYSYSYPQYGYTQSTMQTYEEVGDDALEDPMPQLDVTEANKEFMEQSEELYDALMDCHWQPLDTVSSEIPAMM

What follows are molecules tested against 3×FLAG-tagged N-terminus-truncated NS1 protein (amino acids 79–230) of influenza A virus PR8(H1N1) (influenza virus A/PR8/34 (H1N1)) (UniProt P03496) (assay: affinity purification with mass spectrometry).

Row | Molecule | binding
1 | 14-3-3 protein sigma (from UniProt P31947 1-248) | binds
2 | Calmodulin-like protein 5 (from UniProt Q9NZT1 1-146) | binds
3 | Desmoglein-1 (from UniProt Q02413 50-1049) | binds
4 | Desmoplakin (from UniProt P15924 1-2871) | binds
5 | Envoplakin (from UniProt Q92817 1-2033) | binds
6 | Epiplakin (from UniProt P58107 1-5088) | binds
7 | Filaggrin (from UniProt P20930 1-4061) | binds
8 | Filaggrin-2 (from UniProt Q5D862 1-2391) | binds
9 | Heat shock protein beta-1 (from UniProt P04792 1-205) | binds
10 | Inosine-5′-monophosphate dehydrogenase 2 (from UniProt P12268 1-514) | binds
11 | Neuroblast differentiation-associated protein AHNAK (from UniProt Q09666 1-5890) | binds
12 | Periplakin (from UniProt O60437 1-1756) | binds
13 | Prelamin-A/C (from UniProt P02545 1-646) | binds
14 | Protein POF1B (from UniProt Q8WVV4 1-589) | binds
15 | RNA-binding protein PNO1 (from UniProt Q9NRX1 1-252) | binds
16 | Ribosome biogenesis protein NSA2 homolog (from UniProt O95478 1-260) | binds
17 | Serine/threonine-protein kinase 38 (from UniProt Q15208 1-465) | binds
18 | Spliceosome RNA helicase DDX39B (from UniProt Q13838 1-428) | binds
19 | Tubulin alpha-1C chain (from UniProt Q9BQE3 1-449) | binds
20 | Unconventional myosin-Ib (from UniProt O43795 1-1136) | binds
21 | tRNA selenocysteine 1-associated protein 1 (from UniProt Q9NX07 1-287) | binds
22 | Involucrin (protein, UniProt P07476 1-585) MSQQHTLPVTLSPALSQELLKTVPPPVNTHQEQMKQPTPLPPPCQKVPVELPVEVPSKQEEKHMTAVKGLPEQECEQQQKEPQEQELQQQHWEQHEEYQKAENPEQQLKQEKTQRDQQLNKQLEEEKKLLDQQLDQELVKRDEQLGMKKEQLLELPEQQEGHLKHLEQQEGQLKHPEQQEGQLELPEQQEGQLELPEQQEGQLELPEQQEGQLELPEQQEGQLELPEQQEGQLELPQQQEGQLELSEQQEGQLELSEQQEGQLKHLEHQEGQLEVPEEQMGQLKYLEQQEGQLKHLDQQEKQPELPEQQMGQLKHLEQQEGQPKHLEQQEGQLEQLEEQEGQLKHLEQQEGQLEHLEHQEGQLGLPEQQVLQLKQLEKQQGQPKHLEEEEGQLKHLVQQEGQLKHLVQQEGQLEQQERQVEHLEQQVGQLKHLEEQEGQLKHLEQQQGQLEVPEQQVGQPKNLEQEEKQLELPEQQEGQVKHLEKQEAQLELPEQQVGQPKHLEQQEKHLEHPEQQDGQLKHLEQQEGQLKDLEQQKGQLEQPVFAPAPGQVQDIQPALPTKGEVLLPVEHQQQKQEVQWPPKHK | binds
23 | Ethylmalonyl-CoA decarboxylase (protein, UniProt Q9NTX5 1-307) MALKQEMAKSLLKTASLSGRTKLLHQTGLSLYSTSHGFYEEEVKKTLQQFPGGSIDLQKEDNGIGILTLNNPSRMNAFSGVMMLQLLEKVIELENWTEGKGLIVRGAKNTFSSGSDLNAVKSLGTPEDGMAVCMFMQNTLTRFMRLPLISVALVQGWALGGGAEFTTACDFRLMTPESKIRFVHKEMGIIPSWGGTTRLVEIIGSRQALKVLSGALKLDSKNALNIGMVEEVLQSSDETKSLEEAQEWLKQFIQGPPEVIRALKKSVCSGRELYLEEALQNERDLLGTVWGGPANLEAIAKKGKFNK | binds
24 | Malate dehydrogenase, mitochondrial (protein, UniProt P40926 25-338) AKVAVLGASGGIGQPLSLLLKNSPLVSRLTLYDIAHTPGVAADLSHIETKAAVKGYLGPEQLPDCLKGCDVVVIPAGVPRKPGMTRDDLFNTNATIVATLTAACAQHCPEAMICVIANPVNSTIPITAEVFKKHGVYNPNKIFGVTTLDIVRANTFVAELKGLDPARVNVPVIGGHAGKTIIPLISQCTPKVDFPQDQLTALTGRIQEAGTEVVKAKAGAGSATLSMAYAGARFVFSLVDAMNGKEGVVECSFVKSQETECTYFSTPLLLGKKGIEKNLGIGKVSSFEEKMISDAIPELKASIKKGEDFVKTLK | binds
25 | Lon protease homolog, mitochondrial (protein, UniProt P36776 68-959) FWEASSRGGGAFSGGEDASEGGAEEGAGGAGGSAGAGEGPVITALTPMTIPDVFPHLPLIAITRNPVFPRFIKIIEVKNKKLVELLRRKVRLAQPYVGVFLKRDDSNESDVVESLDEIYHTGTFAQIHEMQDLGDKLRMIVMGHRRVHISRQLEVEPEEPEAENKHKPRRKSKRGKKEAEDELSARHPAELAMEPTPELPAEVLMVEVENVVHEDFQVTEEVKALTAEIVKTIRDIIALNPLYRESVLQMMQAGQRVVDNPIYLSDMGAALTGAESHELQDVLEETNIPKRLYKALSLLKKEFELSKLQQRLGREVEEKIKQTHRKYLLQEQLKIIKKELGLEKDDKDAIEEKFRERLKELVVPKHVMDVVDEELSKLGLLDNHSSEFNVTRNYLDWLTSIPWGKYSNENLDLARAQAVLEEDHYGMEDVKKRILEFIAVSQLRGSTQGKILCFYGPPGVGKTSIARSIARALNREYFRFSVGGMTDVAEIKGHRRTYVGAMPGKIIQCLKKTKTENPLILIDEVDKIGRGYQGDPSSALLELLDPEQNANFLDHYLDVPVDLSKVLFICTANVTDTIPEPLRDRMEMINVSGYVAQEKLAIAERYLVPQARALCGLDESKAKLSSDVLTLLIKQYCRESGVRNLQKQVEKVLRKSAYKIVSGEAESVEVTPENLQDFVGKPVFTVERMYDVTPPGVVMGLAWTAMGGSTLFVETSLRRPQDKDAKGDKDGSLEVTGQLGEVMKESARIAYTFARAFLMQHAPANDYLVTSHIHLHVPEGATPKDGPSAGCTIVTALLSLAMGRPVRQNLAMTGEVSLTGKILPVGGIKEKTIAAKRAGVTCIVLPAENKKDFYDLAAFITEGLEVHFVEHYREIFDIAFPDEQAEALAVER | binds
26 | DNA ligase 3 (protein, UniProt P49916 43-1009) LLHGHPLFLRRKPVLSFQGSHLRSRATYLVFLPGLHVGLCSGPCEMAEQRFCVDYAKRGTAGCKKCKEKIVKGVCRIGKVVPNPFSESGGDMKEWYHIKCMFEKLERARATTKKIEDLTELEGWEELEDNEKEQITQHIADLSSKAAGTPKKKAVVQAKLTTTGQVTSPVKGASFVTSTNPRKFSGFSAKPNNSGEAPSSPTPKRSLSSSKCDPRHKDCLLREFRKLCAMVADNPSYNTKTQIIQDFLRKGSAGDGFHGDVYLTVKLLLPGVIKTVYNLNDKQIVKLFSRIFNCNPDDMARDLEQGDVSETIRVFFEQSKSFPPAAKSLLTIQEVDEFLLRLSKLTKEDEQQQALQDIASRCTANDLKCIIRLIKHDLKMNSGAKHVLDALDPNAYEAFKASRNLQDVVERVLHNAQEVEKEPGQRRALSVQASLMTPVQPMLAEACKSVEYAMKKCPNGMFSEIKYDGERVQVHKNGDHFSYFSRSLKPVLPHKVAHFKDYIPQAFPGGHSMILDSEVLLIDNKTGKPLPFGTLGVHKKAAFQDANVCLFVFDCIYFNDVSLMDRPLCERRKFLHDNMVEIPNRIMFSEMKRVTKALDLADMITRVIQEGLEGLVLKDVKGTYEPGKRHWLKVKKDYLNEGAMADTADLVVLGAFYGQGSKGGMMSIFLMGCYDPGSQKWCTVTKCAGGHDDATLARLQNELDMVKISKDPSKIPSWLKVNKIYYPDFIVPDPKKAAVWEITGAEFSKSEAHTADGISIRFPRCTRIRDDKDWKSATNLPQLKELYQLSKEKADFTVVAGDEGSSTTGGSSEENKGPSGSAVSRKAPSKPSASTKKAEGKLSNSNSKDGNMQTAKPSAMKVGEKLATKSSPVKVGEKRKAADETLCQTKVLLDIFTGVRLYLPPSTPDFSRLRRYFVAFDGDLVQEFDMTSATHVLGSRDKNPAAQQVSPEWIWACIRKRRLVAPC | binds
27 | T-complex protein 1 subunit beta (protein, UniProt P78371 1-535) MASLSLAPVNIFKAGADEERAETARLTSFIGAIAIGDLVKSTLGPKGMDKILLSSGRDASLMVTNDGATILKNIGVDNPAAKVLVDMSRVQDDEVGDGTTSVTVLAAELLREAESLIAKKIHPQTIIAGWREATKAAREALLSSAVDHGSDEVKFRQDLMNIAGTTLSSKLLTHHKDHFTKLAVEAVLRLKGSGNLEAIHIIKKLGGSLADSYLDEGFLLDKKIGVNQPKRIENAKILIANTGMDTDKIKIFGSRVRVDSTAKVAEIEHAEKEKMKEKVERILKHGINCFINRQLIYNYPEQLFGAAGVMAIEHADFAGVERLALVTGGEIASTFDHPELVKLGSCKLIEEVMIGEDKLIHFSGVALGEACTIVLRGATQQILDEAERSLHDALCVLAQTVKDSRTVYGGGCSEMLMAHAVTQLANRTPGKEAVAMESYAKALRMLPTIIADNAGYDSADLVAQLRAAHSEGNTTAGLDMREGTIGDMAILGITESFQVKRQVLLSAAEAAEVILRVDNIIKAAPRKRVPDHHPC | binds
28 | Dehydrogenase/reductase SDR family member 4 (protein, UniProt Q9BTZ2 1-278) MHKAGLLGLCARAWNSVRMASSGMTRRDPLANKVALVTASTDGIGFAIARRLAQDGAHVVVSSRKQQNVDQAVATLQGEGLSVTGTVCHVGKAEDRERLVATAVKLHGGIDILVSNAAVNPFFGSIMDVTEEVWDKTLDINVKAPALMTKAVVPEMEKRGGGSVVIVSSIAAFSPSPGFSPYNVSKTALLGLTKTLAIELAPRNIRVNCLAPGLIKTSFSRMLWMDKEKEESMKETLRIRRLGEPEDCAGIVSFLCSEDASYITGETVVVGGGTPSRL | binds
29 | Serpin B3 (protein, UniProt P29508 1-390) MNSLSEANTKFMFDLFQQFRKSKENNIFYSPISITSALGMVLLGAKDNTAQQIKKVLHFDQVTENTTGKAATYHVDRSGNVHHQFQKLLTEFNKSTDAYELKIANKLFGEKTYLFLQEYLDAIKKFYQTSVESVDFANAPEESRKKINSWVESQTNEKIKNLIPEGNIGSNTTLVLVNAIYFKGQWEKKFNKEDTKEEKFWPNKNTYKSIQMMRQYTSFHFASLEDVQAKVLEIPYKGKDLSMIVLLPNEIDGLQKLEEKLTAEKLMEWTSLQNMRETRVDLHLPRFKVEESYDLKDTLRTMGMVDIFNGDADLSGMTGSRGLVLSGVLHKAFVEVTEEGAEAAAATAVVGFGSSPTSTNEEFHCNHPFLFFIRQNKTNSILFYGRFSSP | binds
